Among the data in US20130071410A1 (published 2013) are binding values, retold here.

Protein sequences, listed by entry. Tags and fused reporters are not part of them. Lines headed by an entry give the natural chain unless they say otherwise; changes in a name come on top.
UniProt Q16602: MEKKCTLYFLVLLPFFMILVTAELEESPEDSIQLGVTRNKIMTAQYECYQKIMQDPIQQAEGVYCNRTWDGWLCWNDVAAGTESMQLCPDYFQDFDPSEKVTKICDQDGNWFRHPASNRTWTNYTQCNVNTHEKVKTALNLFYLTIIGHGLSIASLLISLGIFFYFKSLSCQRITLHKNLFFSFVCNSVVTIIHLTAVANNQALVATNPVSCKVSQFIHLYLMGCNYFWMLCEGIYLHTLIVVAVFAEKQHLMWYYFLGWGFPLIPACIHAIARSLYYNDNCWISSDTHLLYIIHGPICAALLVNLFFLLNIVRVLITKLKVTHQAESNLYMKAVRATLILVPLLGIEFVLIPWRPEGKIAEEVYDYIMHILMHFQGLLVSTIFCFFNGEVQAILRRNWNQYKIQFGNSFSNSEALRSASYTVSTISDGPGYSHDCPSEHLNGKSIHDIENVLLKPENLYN

The assay concerns the target T1, Alexa 647-labeled CGRP8-37 peptide analog.
T1 sequence (peptide, N-terminal acetyl (Ac-), C-terminal amide (-NH2), Alexa 647 label): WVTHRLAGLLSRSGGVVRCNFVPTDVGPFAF
Nature of the assay: FMAT competition.

No constants are given. Whether binding was seen depends on the method and setting. Some results given as binding are weak or reduced against the parent protein; the word gives no strength.

As to “soluble heterodimeric CGRP R ECD fused to human IgG1 Fc (from UniProt Q16602 23-138; O60894 27-117) (Fc fusion)”, the binding entry is on record as “binds”.
